Results reported in PubChem BioAssay (EPA / NIEHS).
This list was built around the results that the source calls inconclusive (neither active nor inactive); the mix of calls is not that of the screen. Potencies beside an inconclusive call are fits to weak or partial responses and may not hold up. Calls of active or inactive are those of the source. The calls were made as follows: active = hit-call score of the fitted dose curve at least 0.9, where 1 is the maximum; inconclusive = response in the unintended direction; inactive = score below 0.9.

The chains behind the UniProt entries cited, without tags or fusion partners. Where a name states a change or a piece, a line headed by the entry shows the natural chain unless it says otherwise.
UniProt P18090, whole entry, looked up: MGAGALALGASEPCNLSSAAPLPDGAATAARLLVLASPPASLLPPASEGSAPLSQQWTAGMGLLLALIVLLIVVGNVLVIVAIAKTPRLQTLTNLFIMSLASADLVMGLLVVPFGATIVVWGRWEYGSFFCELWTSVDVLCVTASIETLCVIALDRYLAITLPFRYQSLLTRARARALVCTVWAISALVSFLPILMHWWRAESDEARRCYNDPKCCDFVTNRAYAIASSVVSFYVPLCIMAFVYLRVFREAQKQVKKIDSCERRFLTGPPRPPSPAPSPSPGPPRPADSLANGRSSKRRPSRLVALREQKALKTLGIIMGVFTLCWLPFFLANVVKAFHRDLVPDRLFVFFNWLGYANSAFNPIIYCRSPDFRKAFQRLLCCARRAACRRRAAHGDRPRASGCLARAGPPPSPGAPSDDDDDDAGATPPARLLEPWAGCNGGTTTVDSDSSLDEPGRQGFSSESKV
UniProt P22909, whole entry, looked up: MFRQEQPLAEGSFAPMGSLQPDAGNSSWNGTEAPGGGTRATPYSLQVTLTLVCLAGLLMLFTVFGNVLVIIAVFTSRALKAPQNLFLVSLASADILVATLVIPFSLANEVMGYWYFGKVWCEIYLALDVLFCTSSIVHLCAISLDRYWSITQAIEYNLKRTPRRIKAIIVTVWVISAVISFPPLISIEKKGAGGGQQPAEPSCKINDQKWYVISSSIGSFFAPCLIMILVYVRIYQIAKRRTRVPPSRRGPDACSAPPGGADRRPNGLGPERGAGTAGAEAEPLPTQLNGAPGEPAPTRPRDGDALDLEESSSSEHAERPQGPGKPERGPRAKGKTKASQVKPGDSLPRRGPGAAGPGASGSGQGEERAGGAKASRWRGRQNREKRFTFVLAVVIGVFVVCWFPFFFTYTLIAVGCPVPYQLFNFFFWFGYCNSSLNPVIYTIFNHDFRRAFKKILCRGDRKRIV
UniProt Q9Z0U4, whole entry, looked up: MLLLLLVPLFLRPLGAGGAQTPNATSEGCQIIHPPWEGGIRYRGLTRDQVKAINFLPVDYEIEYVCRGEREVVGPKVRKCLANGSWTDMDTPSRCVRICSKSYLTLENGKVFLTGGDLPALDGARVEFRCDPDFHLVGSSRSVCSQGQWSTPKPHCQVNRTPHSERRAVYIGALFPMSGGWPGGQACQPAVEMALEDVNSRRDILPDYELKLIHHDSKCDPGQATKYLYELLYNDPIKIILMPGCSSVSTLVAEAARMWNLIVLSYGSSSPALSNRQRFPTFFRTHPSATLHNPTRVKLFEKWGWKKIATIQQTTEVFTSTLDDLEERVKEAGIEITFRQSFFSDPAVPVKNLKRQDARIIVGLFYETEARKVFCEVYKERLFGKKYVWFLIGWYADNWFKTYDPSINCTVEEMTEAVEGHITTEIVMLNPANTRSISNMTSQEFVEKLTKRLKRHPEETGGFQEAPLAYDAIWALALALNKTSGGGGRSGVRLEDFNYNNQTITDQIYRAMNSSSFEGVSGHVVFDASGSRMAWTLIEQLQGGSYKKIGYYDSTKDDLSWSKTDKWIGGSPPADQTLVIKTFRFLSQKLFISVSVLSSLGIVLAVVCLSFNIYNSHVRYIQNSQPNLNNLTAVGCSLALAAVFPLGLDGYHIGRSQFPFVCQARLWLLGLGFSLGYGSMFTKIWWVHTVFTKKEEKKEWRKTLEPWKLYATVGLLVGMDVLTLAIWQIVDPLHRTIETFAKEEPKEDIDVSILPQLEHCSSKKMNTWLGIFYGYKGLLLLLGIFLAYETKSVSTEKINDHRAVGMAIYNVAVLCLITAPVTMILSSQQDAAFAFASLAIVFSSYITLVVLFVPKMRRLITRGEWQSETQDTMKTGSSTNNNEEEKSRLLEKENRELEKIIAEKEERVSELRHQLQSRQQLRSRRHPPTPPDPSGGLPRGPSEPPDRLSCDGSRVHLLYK
UniProt Q9QYN8: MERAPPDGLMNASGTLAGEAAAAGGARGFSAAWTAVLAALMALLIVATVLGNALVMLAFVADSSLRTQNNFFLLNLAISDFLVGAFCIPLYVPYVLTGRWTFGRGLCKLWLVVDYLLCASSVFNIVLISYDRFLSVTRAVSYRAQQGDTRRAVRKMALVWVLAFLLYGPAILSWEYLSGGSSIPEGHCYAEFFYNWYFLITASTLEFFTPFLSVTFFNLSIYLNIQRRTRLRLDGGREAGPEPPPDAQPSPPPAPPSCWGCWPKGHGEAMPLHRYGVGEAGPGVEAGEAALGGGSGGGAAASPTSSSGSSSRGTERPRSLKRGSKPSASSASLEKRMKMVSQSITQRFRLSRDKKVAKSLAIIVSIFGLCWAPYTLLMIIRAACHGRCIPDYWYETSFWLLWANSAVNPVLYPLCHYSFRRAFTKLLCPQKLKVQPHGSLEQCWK
UniProt P19328, whole entry, looked up: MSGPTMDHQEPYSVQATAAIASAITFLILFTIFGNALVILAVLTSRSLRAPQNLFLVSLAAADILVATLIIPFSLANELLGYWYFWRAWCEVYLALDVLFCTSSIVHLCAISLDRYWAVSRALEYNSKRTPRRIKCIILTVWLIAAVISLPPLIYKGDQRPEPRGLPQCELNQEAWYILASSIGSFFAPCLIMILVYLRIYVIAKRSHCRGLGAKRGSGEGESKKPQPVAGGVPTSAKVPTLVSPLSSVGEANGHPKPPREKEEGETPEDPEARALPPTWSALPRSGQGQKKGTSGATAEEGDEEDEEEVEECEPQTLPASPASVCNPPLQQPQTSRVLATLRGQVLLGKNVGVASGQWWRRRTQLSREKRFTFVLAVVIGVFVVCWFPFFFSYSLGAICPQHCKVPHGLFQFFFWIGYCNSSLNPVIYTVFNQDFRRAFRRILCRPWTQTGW
UniProt P31424, whole entry, looked up: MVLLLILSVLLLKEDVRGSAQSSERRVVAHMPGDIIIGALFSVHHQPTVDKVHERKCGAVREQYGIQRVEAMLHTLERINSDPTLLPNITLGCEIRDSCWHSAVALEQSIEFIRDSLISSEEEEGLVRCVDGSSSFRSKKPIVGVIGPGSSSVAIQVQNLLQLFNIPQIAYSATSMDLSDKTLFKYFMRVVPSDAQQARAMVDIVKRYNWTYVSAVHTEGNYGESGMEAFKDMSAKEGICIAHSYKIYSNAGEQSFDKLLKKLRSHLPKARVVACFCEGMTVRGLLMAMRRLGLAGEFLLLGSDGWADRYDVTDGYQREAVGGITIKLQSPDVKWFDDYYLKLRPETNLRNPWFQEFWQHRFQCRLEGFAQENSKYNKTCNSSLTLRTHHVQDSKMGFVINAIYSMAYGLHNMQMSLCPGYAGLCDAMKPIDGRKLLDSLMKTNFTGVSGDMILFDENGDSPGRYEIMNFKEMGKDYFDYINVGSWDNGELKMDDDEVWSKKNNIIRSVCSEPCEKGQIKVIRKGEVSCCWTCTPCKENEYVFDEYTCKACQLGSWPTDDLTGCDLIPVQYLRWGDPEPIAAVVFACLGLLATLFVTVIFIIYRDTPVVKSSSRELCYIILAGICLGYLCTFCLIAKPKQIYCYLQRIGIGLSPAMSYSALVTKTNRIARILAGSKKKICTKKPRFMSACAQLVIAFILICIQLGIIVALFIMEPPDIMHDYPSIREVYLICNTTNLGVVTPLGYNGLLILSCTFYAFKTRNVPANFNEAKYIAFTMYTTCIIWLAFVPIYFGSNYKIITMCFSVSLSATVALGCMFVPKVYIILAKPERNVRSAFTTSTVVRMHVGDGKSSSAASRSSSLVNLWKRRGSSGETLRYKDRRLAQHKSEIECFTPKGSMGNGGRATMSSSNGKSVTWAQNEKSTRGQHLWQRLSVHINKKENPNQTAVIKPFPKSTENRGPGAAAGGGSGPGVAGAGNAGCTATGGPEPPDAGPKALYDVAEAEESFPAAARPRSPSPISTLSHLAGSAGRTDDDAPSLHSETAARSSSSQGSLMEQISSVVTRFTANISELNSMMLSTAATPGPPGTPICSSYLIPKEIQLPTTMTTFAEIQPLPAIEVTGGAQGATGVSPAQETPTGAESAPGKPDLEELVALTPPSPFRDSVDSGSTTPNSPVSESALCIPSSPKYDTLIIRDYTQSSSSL

These molecules were tested against rat Adrenergic Receptor, Beta (Adrb), Non-selective Binding, Adrb1 (gene 24925) (UniProt P18090) (assay: NVS_GPCR_rAdrb_NonSelective: NovaScreen (NVS) G Protein-Coupled Receptor Assay for rat Adrenergic Receptor, Beta (Adrb), Non-selective Binding (AID 2283298)).
Method in brief: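 Non-selective beta-adrenergic radioligand binding in rat cortical membranes, 1 h incubation, filter-based scintillation read-out. Primary screen 25 uM in duplicate; hits retested in concentration-response up to 50 uM, DMSO baseline.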
O=c1[nH]c2ccc(S(=O)CCN3CCC(Cc4ccc(F)cc4)CC3)cc2o1 (stereo unspecified) was tested, and the outcome was “inactive”.
For CCn1nc(Cc2ccccc2)cc1C1CCN(C[C@H]2C[C@H](N(C)[C@@H](C(=O)O)C(C)C)C[C@@H]2c2cccc(F)c2)CC1, the outcome was “inactive”.
With O=C(O)Cn1c(=O)n(Cc2ccc(Br)cc2F)c(=O)c2ccc(Cl)cc21 the AC50 was inconclusive: 0.787 µM.
In the case of COCCOC[C@H](CC1(C(=O)NC2CCC(C(=O)O)CC2)CCCC1)C(=O)Oc1ccc2c(c1)CCC2 (stereo partly specified), the AC50 is reported as inconclusive: 0.106 µM.
In the case of O=C(O)CC(O)(CC(=O)O)C(=O)O, the AC50 is reported as inconclusive: 25 µM.
For CC(C)CCCCCCOC(=O)CCCCC(=O)OCCCCCCC(C)C, the outcome was “inactive”.
CC(C)OC(=O)C(C)(C)Oc1ccc(C(=O)c2ccc(Cl)cc2)cc1 was tested, and the AC50 was inconclusive: 6.06 µM.
With O=C(O)Cc1ccccc1Nc1c(Cl)cccc1Cl the AC50 was inconclusive: 20.2 µM.
In the case of CS(=O)(=O)OCCCCOS(C)(=O)=O, the AC50 is reported as inconclusive: 0.0817 µM.

What follows are molecules tested against rat Adrenergic Receptor, Alpha 2 (Adra2), Non-selective Binding, Adra2a (gene 25083) (UniProt P22909) (assay: NVS_GPCR_rAdra2_NonSelective: NovaScreen (NVS) G Protein-Coupled Receptor Assay for rat Adrenergic Receptor, Alpha 2 (Adra2), Non-selective Binding (AID 2283299)).
Method in brief: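 Rat cortical membranes, radioligand competitive displacement read by filter-based scintillation counting 1.25 hours after dosing. Primary screen in duplicate at 25 uM; actives followed up in concentration series.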
With CCn1c2ccccc2c2cc(N)ccc21 the AC50 was active: 25 µM.
With CC(C)(c1ccc(O)cc1)c1ccc(O)cc1 the outcome was “inactive”.
With c1ccc2ccccc2c1 the AC50 was inconclusive: 0.00229 µM.
With CCCCCCCCCCCCCCCC[N+](C)(C)Cc1ccccc1 the AC50 was active: 38.6 µM.
For O=C(O)Cc1ccccc1Nc1c(Cl)cccc1Cl, the AC50 was inconclusive: 0.0776 µM.
For CCC(C)(C)C(=O)O[C@H]1C[C@@H](C)C=C2C=C[C@H](C)[C@H](CC[C@@H]3C[C@@H](O)CC(=O)O3)[C@H]21, the outcome was “inactive”.

The molecules below were run against rat Gamma-Aminobutyric Acid Type B Receptor (GABBR), Gabbr1 (gene 81657) (UniProt Q9Z0U4) (assay: NVS_GPCR_rGABBR: NovaScreen (NVS) G Protein-Coupled Receptor Assay for rat Gamma-Aminobutyric Acid Type B Receptor (GABBR) (AID 2283301)).
Procedure: NVS_GPCR_rGABBR is a biochemical, single-readout assay that uses extracted gene-proteins from Rat cortical membranes in a tissue-based cell-free assay. Measurements were taken 1 hour after chemical dosing in a 96-well plate.NVS_GPCR_rGABBR is one of one assay component(s) measured or calculated from the NVS_GPCR_rGABBR assay. It is designed to make measurements of radioligand binding, a form of binding reporter, as detected with scintillation counting signals by Filter-based radiodetection technology.Data from the assay component NVS_GPCR_rGABBR was analyzed into 1 assay endpoint. This assay endpoint, NVS_GPCR_rGABBR, was analyzed in the positive analysis fitting direction relative to DMSO as the negative control and baseline of activity. Using a type of binding reporter, loss-of-signal activity can be used to understand changes in the binding as they relate to the gene Gabbr1. Furthermore, this assay endpoint can be referred to as a primary readout, because the performed assay has only produced 1 assay endpoint. To generalize the intended target to other relatable targets, this assay endpoint is annotated to the gpcr intended target family, where the subfamily is metabotropic glutamate receptor.
Binding assays used specific radioligands (tritiated, iodinated) with non-radioactive competitive displacement ligands in agonist or antagonist protocols (as indicated) and various reference compounds and inhibitors to titrate specific binding to receptors and transporters. Most enzyme assays (CYPs, kinases, phosphatases, proteases, HDACs) used recombinant protein and specific substrates (fluorescence mostly, some colorimetric and radioactive) and inhibitors, followed by a biochemical separation of substrate and product. All assays for the biochemical HTS were initially run in duplicate at a single concentration (10 uM for CYP450 assays and 25 uM for all others). Assay-chemical combinations meeting a pre-defined threshold (e.g., 30% inhibition and other criteria defined below) were then run in singleton concentration-response format with maximum concentration of 20 uM for CYPs and 50 uM for all others. Each assay was run with positive and negative controls, and concurrent controls on every plate. The follow-up (secondary) screen tested active chemical-pairs in concentration series, as well as a few additional assays not tested in the primary screen, some selected negative inactives, and several cases re-run in the concentration series for confirmatory purposes.
In the case of NC(=O)N1c2ccccc2C=Cc2ccccc21, the outcome is reported as “inactive”.
CCCCCCCCCCCCCCCCCC(=O)O was tested, and the AC50 was inconclusive: 46.1 µM.
CCOc1ccc2[nH]cc(C(=O)NCc3ccccc3)c(=O)c2n1 was tested, and the AC50 was inconclusive: 25 µM.
In the case of CCN(CC)C(=O)c1cc(S(=O)(=O)Cc2ccccc2)c(N2CCC(c3ccccc3)CC2)cc1N(CC)CCN(C)C, the AC50 is reported as inconclusive: 43.2 µM.

Each molecule was assayed against rat Histamine Receptor (H3), Hrh3 (gene 85268) (UniProt Q9QYN8) (assay: NVS_GPCR_rH3: NovaScreen (NVS) G Protein-Coupled Receptor Assay for rat Histamine Receptor (H3) (AID 2283303)).
Method in brief: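 Rat forebrain membranes incubated 1 h with compound; radioligand displacement measured by filter-based scintillation counting. Single-concentration duplicates at 25 µM, then concentration-response up to 50 µM, relative to DMSO.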
N=C(N)c1ccc(OCCCCCOc2ccc(C(=N)N)cc2)cc1 was tested, and the AC50 was active: 0.362 µM.
COCCOC[C@H](CC1(C(=O)NC2CCC(C(=O)O)CC2)CCCC1)C(=O)Oc1ccc2c(c1)CCC2 (stereo partly specified) was tested, and the AC50 was inconclusive: 25 µM.
CNCc1cc(F)ccc1Oc1ccc(Cl)c(Cl)c1 was tested, and the outcome was “inactive”.

The molecules below were run against Adra2b (gene 24174) (UniProt P19328) (assay: NVS_GPCR_rmAdra2B: NovaScreen (NVS) G Protein-Coupled Receptor Assay for hybird cells Adrenergic, Alpha 2B Receptor (Adra2B) (AID 2283306)).
Method in brief: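 Radioligand filter-binding assay on membrane proteins from neuroglioma/blastoma hybrid cells (rodent), 1 h after dosing; scintillation counting, loss of signal vs DMSO. Primary screen in duplicate at 25 uM, actives then run in concentration series.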
In the case of CSc1ccc(Oc2ccc(S(N)(=O)=O)cc2CN(C)C)cc1C, the AC50 is reported as active: 1.74 µM.
O=c1[nH]cnc2c1ncn2[C@H]1CC[C@@H](CO)O1 was tested, and the AC50 was inconclusive: 0.587 µM.
With c1ccc(C(O[C@@H]2CCCN(CCc3ccc4c(c3)OCO4)C2)c2ccccc2)cc1 the AC50 was active: 7.75 µM.
With CCC(=C(c1ccc(O)cc1)c1ccc(OCCN(C)C)cc1)c1ccccc1 the AC50 was inconclusive: 0.0688 µM.
With O=C(O)Cc1ccccc1Nc1c(Cl)cccc1Cl the AC50 was inconclusive: 1.31 µM.
In the case of CCN(Cc1cccnc1)C(=O)c1cccc(Cl)c1[C@]1(C)C(=O)N(Cc2ccc(OC)cc2OC)c2ccc(Cl)cc21, the AC50 is reported as active: 4.68 µM.

These molecules were tested against rat Glutamate Metabotropic Receptor 5 (MGluR5), Grm5 (gene 24418) (UniProt P31424) (assay: NVS_GPCR_rmMGluR5: NovaScreen (NVS) G Protein-Coupled Receptor Assay for rat Glutamate Metabotropic Receptor 5 (MGluR5) (AID 2283307)).
Method in brief: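 Rat whole-brain membrane preparation; filter-based radioligand binding read by scintillation counting, 1.5 h after dosing. Single-point screen at 25 uM in duplicate; hits over threshold (e.g. 30% inhibition) retested in concentration-response up to 50 uM; loss of signal vs DMSO.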
With O=C(O)c1ccccc1C(c1ccc(O)cc1)c1ccc(O)cc1 the AC50 was inconclusive: 25 µM.
With CC(C)CCCCCCOC(=O)CCCCC(=O)OCCCCCCC(C)C the outcome was “inactive”.
With O=CCCCC=O the outcome was “inactive”.
